Assay results taken from publication PMC3440356.
These are yes or no findings as the source states them, for the method shown. For part of these data: In cells and extracts the contact can be indirect. Some results given as binding are weak or reduced against the parent protein; the word gives no strength. For part of these data: Where a sequence is shown, tags or fusion partners need not be part of it. Values belong to the substance of their own block, whether it stands above or below them.

Amino acid sequences for entries named in this document (tags omitted).
UniProt P62993: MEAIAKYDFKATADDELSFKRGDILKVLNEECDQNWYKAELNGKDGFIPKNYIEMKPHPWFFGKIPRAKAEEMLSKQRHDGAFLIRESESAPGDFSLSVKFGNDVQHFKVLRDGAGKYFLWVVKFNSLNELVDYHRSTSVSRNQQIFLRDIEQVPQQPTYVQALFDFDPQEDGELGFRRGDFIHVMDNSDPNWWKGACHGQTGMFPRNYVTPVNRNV
UniProt O00750: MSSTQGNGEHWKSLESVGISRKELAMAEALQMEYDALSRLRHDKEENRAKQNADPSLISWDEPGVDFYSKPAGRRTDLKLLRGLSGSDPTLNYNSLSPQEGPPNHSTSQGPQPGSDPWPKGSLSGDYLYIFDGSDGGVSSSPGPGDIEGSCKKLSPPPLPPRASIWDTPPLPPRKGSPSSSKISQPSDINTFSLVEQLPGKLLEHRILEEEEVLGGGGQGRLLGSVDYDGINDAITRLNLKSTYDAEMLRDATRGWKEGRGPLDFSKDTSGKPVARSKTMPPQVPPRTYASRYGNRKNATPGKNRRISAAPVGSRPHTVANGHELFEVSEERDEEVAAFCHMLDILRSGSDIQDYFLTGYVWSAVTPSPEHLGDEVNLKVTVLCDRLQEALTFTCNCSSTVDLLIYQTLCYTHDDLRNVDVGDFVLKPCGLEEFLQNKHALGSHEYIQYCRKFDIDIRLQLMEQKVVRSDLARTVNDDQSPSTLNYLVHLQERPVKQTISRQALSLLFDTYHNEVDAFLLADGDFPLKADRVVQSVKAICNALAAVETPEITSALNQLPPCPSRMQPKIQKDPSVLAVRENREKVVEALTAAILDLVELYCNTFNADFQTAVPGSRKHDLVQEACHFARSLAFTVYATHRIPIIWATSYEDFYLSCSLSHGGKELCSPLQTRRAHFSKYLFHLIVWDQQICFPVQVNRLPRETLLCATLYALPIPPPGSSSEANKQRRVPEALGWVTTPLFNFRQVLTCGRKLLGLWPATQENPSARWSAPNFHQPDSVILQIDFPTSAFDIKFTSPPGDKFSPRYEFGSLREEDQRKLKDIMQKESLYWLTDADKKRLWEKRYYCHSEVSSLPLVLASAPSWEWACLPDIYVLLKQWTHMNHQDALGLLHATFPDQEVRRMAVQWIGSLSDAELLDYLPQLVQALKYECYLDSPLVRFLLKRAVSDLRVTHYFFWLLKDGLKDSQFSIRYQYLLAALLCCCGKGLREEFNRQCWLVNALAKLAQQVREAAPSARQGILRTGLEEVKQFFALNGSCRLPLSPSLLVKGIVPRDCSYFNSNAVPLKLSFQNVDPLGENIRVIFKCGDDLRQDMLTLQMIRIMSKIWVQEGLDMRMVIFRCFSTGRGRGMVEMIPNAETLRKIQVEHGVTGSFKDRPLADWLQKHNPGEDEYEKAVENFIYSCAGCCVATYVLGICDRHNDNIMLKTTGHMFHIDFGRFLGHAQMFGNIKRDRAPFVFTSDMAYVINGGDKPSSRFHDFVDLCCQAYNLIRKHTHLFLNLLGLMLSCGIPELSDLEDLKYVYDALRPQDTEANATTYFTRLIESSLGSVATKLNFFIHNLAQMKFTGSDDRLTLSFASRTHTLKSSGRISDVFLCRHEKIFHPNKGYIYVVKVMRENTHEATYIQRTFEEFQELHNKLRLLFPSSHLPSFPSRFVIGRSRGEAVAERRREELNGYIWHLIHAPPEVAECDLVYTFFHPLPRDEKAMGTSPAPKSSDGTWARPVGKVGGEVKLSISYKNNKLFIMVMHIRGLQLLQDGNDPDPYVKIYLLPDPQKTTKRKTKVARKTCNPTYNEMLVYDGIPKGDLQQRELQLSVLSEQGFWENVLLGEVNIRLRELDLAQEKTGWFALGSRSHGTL
UniProt Q60631: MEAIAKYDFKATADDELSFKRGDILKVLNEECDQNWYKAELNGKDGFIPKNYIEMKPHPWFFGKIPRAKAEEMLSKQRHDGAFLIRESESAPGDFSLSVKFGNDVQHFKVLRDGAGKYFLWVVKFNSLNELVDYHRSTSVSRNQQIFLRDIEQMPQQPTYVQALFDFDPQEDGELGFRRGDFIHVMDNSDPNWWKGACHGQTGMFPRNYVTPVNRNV

What was measured:
[1] = target: T1, GST-fused Dbl PH domain (human) (UniProt P10911); assay: pull-down; in vitro binding assay: GST-tagged proteins immobilised on glutathione-sepharose beads, incubated with soluble thrombin-cleaved NT-C2β and Grb2, 2 h at 4°C, 1% Brij 96 buffer (also Triton 1%); immunoblot; both purified
T1 sequence: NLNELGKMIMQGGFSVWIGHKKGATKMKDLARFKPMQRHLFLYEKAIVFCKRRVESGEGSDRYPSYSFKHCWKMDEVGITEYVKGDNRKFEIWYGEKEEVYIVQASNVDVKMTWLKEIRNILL

GST-fused Grb2 = GST-fused Grb2 (UniProt P62993); assay: pull-down; GST-NT-C2β or GST-Grb2 immobilised on glutathione beads, incubated 2 h at 4°C with lysates (Triton 1%) of HEK293 cells transfected with HA-proto-Dbl or untransfected; immunoblot; only the target purified
[2] = target: Glu-tagged PI3KC2β wild-type (UniProt O00750); assay: co-IP; lysates of NIH3T3 cells stably expressing Glu-PI3KC2β WT or Myc-PI3KC2β DN; IP with anti-C2β, anti-Glu (EE) tag or anti-Dbl antibody, 2 h at 4°C, immunoblot; also serum-starved cells stimulated with EGF or PDGF (20 ng/ml) for 5 to 30 min

binding [1]: no binding
Substance: soluble Grb2 (from UniProt P62993 1-217)

binding (GST-fused Grb2): binds
Substance: endogenous PI3KC2β (IMR5, HEK293) (from UniProt O00750 1-1634) (enzyme)

binding [2]: binds
Substance: endogenous Grb2 (NIH3T3) (from UniProt Q60631 1-217)
